No constants are given. Whether binding was seen depends on the method and setting. In cells and extracts the contact can be indirect. Some binding calls cover weakened binding; strength is not graded here. For some assays here: Where a sequence is shown, tags or fusion partners need not be part of it. Each block holds one molecule with its values, some of them ahead of it.
Tests used:
SFB-tagged IP6K1 (human) = SFB-tagged IP6K1 (human) (UniProt Q92551); assay: pull-down
GST-tagged CK2α (human) = GST-tagged CK2α (human) (UniProt P68400); assay: pull-down
HA-tagged CK2α (human) = HA-tagged CK2α (human) (UniProt P68400); assay: co-IP
myc-tagged AP3B1 (human) = biological target: T1, myc-tagged AP3B1 (human) (UniProt O00203); assay: co-IP
T1 sequence: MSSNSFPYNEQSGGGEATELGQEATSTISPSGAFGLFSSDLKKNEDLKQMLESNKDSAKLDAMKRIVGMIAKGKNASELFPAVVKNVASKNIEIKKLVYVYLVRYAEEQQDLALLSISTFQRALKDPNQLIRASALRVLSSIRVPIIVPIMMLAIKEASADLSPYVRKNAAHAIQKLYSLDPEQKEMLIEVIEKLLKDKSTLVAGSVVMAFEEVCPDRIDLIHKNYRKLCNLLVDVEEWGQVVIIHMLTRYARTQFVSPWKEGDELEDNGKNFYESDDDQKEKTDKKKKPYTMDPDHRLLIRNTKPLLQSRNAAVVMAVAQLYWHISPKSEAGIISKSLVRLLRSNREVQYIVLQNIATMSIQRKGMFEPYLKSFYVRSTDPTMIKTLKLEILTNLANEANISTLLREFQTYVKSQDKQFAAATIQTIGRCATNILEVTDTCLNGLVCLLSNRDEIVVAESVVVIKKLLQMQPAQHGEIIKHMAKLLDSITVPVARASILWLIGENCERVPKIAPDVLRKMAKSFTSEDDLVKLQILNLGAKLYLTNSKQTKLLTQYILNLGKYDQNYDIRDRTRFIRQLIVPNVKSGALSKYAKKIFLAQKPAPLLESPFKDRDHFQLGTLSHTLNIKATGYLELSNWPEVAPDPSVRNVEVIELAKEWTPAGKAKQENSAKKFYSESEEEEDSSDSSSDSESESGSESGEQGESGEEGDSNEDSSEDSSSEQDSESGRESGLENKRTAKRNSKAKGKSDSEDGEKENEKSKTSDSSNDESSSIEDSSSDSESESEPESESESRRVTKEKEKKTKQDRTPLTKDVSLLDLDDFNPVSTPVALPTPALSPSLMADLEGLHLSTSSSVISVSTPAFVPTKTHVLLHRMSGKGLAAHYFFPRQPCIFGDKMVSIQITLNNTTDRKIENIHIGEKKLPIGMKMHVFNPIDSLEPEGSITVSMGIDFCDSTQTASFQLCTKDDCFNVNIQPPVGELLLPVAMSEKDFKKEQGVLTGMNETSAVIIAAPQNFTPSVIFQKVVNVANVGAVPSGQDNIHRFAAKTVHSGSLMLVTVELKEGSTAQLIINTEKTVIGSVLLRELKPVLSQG

The chains behind the UniProt entries cited, without tags or fusion partners. Where a name states a change or a piece, a line headed by the entry shows the natural chain unless it says otherwise.
UniProt Q92551: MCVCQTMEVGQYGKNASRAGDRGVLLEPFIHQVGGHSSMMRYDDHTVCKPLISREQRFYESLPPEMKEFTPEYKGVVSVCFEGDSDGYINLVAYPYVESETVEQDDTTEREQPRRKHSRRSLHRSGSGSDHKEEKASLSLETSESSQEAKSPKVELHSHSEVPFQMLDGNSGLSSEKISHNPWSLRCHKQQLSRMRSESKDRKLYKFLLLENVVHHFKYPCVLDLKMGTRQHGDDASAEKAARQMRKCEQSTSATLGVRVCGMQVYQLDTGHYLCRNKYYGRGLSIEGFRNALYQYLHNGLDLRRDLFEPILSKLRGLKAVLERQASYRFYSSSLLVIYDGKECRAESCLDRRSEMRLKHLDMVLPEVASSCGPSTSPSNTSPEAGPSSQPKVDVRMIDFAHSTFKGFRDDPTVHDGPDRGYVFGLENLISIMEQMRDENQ
UniProt P68400: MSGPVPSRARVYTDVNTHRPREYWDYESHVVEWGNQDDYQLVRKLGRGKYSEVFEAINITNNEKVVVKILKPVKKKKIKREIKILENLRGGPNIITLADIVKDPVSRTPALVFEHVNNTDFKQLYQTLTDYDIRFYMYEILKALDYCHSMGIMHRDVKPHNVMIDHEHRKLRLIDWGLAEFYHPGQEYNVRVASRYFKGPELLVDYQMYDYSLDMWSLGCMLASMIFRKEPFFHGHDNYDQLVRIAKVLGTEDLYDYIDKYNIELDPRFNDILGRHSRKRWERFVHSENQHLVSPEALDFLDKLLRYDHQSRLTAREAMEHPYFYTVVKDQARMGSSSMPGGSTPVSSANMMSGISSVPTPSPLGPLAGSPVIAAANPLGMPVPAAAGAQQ
UniProt P01108: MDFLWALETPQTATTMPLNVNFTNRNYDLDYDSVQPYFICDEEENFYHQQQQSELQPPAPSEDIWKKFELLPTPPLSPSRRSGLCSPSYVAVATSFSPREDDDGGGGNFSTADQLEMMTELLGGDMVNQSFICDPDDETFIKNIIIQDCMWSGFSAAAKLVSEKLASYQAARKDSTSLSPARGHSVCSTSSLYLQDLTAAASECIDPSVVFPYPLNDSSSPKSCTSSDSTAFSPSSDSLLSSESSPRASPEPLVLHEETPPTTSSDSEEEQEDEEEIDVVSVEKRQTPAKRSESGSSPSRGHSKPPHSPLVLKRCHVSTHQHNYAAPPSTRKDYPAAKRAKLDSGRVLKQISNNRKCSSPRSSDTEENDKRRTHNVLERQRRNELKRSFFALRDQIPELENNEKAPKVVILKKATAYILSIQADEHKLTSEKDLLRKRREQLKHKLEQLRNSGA

V5-tagged IP6K1 (human) = V5-tagged IP6K1 (human) (UniProt Q92551); assay: co-IP
GST-tagged IP6K1 (human) = GST-tagged IP6K1 (human) (UniProt Q92551); assay: pull-down
[1] = biological target: endogenous IP6K1 (human (endogenous in HEK293T)) (UniProt Q92551); assay: co-IP

Molecule: V5-tagged mouse MYC (from UniProt P01108 1-454)
- binding (SFB-tagged IP6K1 (human)): binds

Molecule: V5-tagged IP6K1 (from UniProt Q92551-1 1-441) (enzyme)
- binding (GST-tagged CK2α (human)): no binding

Molecule: endogenous IP6K1 (from UniProt Q92551 1-441) (enzyme)
- binding (HA-tagged CK2α (human)): no binding
- binding (myc-tagged AP3B1 (human)): binds

B3: endogenous AP3B1 (protein, UniProt O00203 1-1094)
chain: T1 sequence
- binding [1]: binds
- binding (SFB-tagged IP6K1 (human)): binds

Results, then the molecule that gave them:

- binding (V5-tagged IP6K1 (human)): binds
B1: myc-tagged NOLC1 (protein, UniProt Q14978-2 1-709)
chain: MADAGIRRVVPSDLYPLVLGFLRDNQLSEVANKFAKATGATQQDANASSLLDIYSFWLKSAKVPERKLQANGPVAKKAKKKASSSDSEDSSEEEEEVQGPPAKKAAVPAKRVGLPPGKAAAKASESSSSEESSDDDDEEDQKKQPVQKGVKPQAKAAKAPPKKAKSSDSDSDSSSEDEPPKNQKPKITPVTVKAQTKAPPKPARAAPKIANGKAASSSSSSSSSSSSDDSEEEKAAATPKKVWTITSVRAETVPKKQVVAKAPVKAATTPTRKSSSSEDSSSDEEEEQKKPMKNKPGPYSSVPPPSAPPPKKSLGTQPPKKAVEKQQPVESSEDSSDESDSSSEEEKKPPTKAVVSKATTKPPPAKKAAESSSDSSDSDSSEDDEAPSKPAGTTKNSSNKPAVTTKSPAVKPAAAPKQPVGGGQKLLTRKADSSSSEEESSSSEEEKTKKMVATTKPKATAKAALSLPAKQAPQGSRDSSSDSDSSSSEEEEEKTSKSAVKKKPQKVAGGAAPSKPASAKKGKAESSNSSSSDDSSEEEEEKLKGKGSPRPQAPKANGTSALTAQNGKAAKNSEEEEEEKKKAAVVVSKSGSLKKRKQNEAAKEAETPQAKKIKLQTPNTFPKRKKGEKRASSPFRRVREEEIEVDSRVADNSFDAKRGAAGDWGERANQVLKFTKGKSFRHEKTKKKRGSYRGGSISVQVNSIKFDSE

- binding (V5-tagged IP6K1 (human)): binds
- binding (GST-tagged CK2α (human)): binds
- binding (GST-tagged IP6K1 (human)): binds
B2: myc-tagged AP3B1 (protein, UniProt O00203-1 1-1094)
chain: T1 sequence

- binding (SFB-tagged IP6K1 (human)): binds
B4: endogenous TCOF (protein, UniProt Q13428 1-1488)
chain: MAEARKRRELLPLIYHHLLRAGYVRAAREVKEQSGQKCFLAQPVTLLDIYTHWQQTSELGRKRKAEEDAALQAKKTRVSDPISTSESSEEEEEAEAETAKATPRLASTNSSVLGADLPSSMKEKAKAETEKAGKTGNSMPHPATGKTVANLLSGKSPRKSAEPSANTTLVSETEEEGSVPAFGAAAKPGMVSAGQADSSSEDTSSSSDETDVEGKPSVKPAQVKASSVSTKESPARKAAPAPGKVGDVTPQVKGGALPPAKRAKKPEEESESSEEGSESEEEAPAGTRSQVKASEKILQVRAASAPAKGTPGKGATPAPPGKAGAVASQTKAGKPEEDSESSSEESSDSEEETPAAKALLQAKASGKTSQVGAASAPAKESPRKGAAPAPPGKTGPAVAKAQAGKREEDSQSSSEESDSEEEAPAQAKPSGKAPQVRAASAPAKESPRKGAAPAPPRKTGPAAAQVQVGKQEEDSRSSSEESDSDREALAAMNAAQVKPLGKSPQVKPASTMGMGPLGKGAGPVPPGKVGPATPSAQVGKWEEDSESSSEESSDSSDGEVPTAVAPAQEKSLGNILQAKPTSSPAKGPPQKAGPVAVQVKAEKPMDNSESSEESSDSADSEEAPAAMTAAQAKPALKIPQTKACPKKTNTTASAKVAPVRVGTQAPRKAGTATSPAGSSPAVAGGTQRPAEDSSSSEESDSEEEKTGLAVTVGQAKSVGKGLQVKAASVPVKGSLGQGTAPVLPGKTGPTVTQVKAEKQEDSESSEEESDSEEAAASPAQVKTSVKKTQAKANPAAARAPSAKGTISAPGKVVTAAAQAKQRSPSKVKPPVRNPQNSTVLARGPASVPSVGKAVATAAQAQTGPEEDSGSSEEESDSEEEAETLAQVKPSGKTHQIRAALAPAKESPRKGAAPTPPGKTGPSAAQAGKQDDSGSSSEESDSDGEAPAAVTSAQVIKPPLIFVDPNRSPAGPAATPAQAQAASTPRKARASESTARSSSSESEDEDVIPATQCLTPGIRTNVVTMPTAHPRIAPKASMAGASSSKESSRISDGKKQEGPATQVSKKNPASLPLTQAALKVLAQKASEAQPPVARTQPSSGVDSAVGTLPATSPQSTSVQAKGTNKLRKPKLPEVQQATKAPESSDDSEDSSDSSSGSEEDGEGPQGAKSAHTLGPTPSRTETLVEETAAESSEDDVVAPSQSLLSGYMTPGLTPANSQASKATPKLDSSPSVSSTLAAKDDPDGKQEAKPQQAAGMLSPKTGGKEAASGTTPQKSRKPKKGAGNPQASTLALQSNITQCLLGQPWPLNEAQVQASVVKVLTELLEQERKKVVDTTKESSRKGWESRKRKLSGDQPAARTPRSKKKKKLGAGEGGEASVSPEKTSTTSKGKAKRDKASGDVKEKKGKGSLGSQGAKDEPEEELQKGMGTVEGGDQSNPKSKKEKKKSDKRKKDKEKKEKKKKAKKASTKDSESPSQKKKKKKKKTAEQTV

Source: article doi:10.1101/2023.12.10.570918
